Values from PubChem BioAssay AID504784 (Drosophila RNAi Screening Center, 2011).
The deposit covers about 17,000 reagents; below is a random part of those with a known target gene and a result. 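Each column is one replicate's B-score; the combined score over replicates was not deposited, so single values may mislead.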 The numbers tell different reagents against one gene apart. A plus sign joins genes that one reagent is predicted to hit. Reagent sequences are not shown.

- Screen: 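Genome-wide knock-down for genes giving too much or too little stored lipid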 (primary screen)
- Cells: Drosophila Kc167 embryonic cells
- Reagents: long dsRNA against Drosophila genes, about 250 ng dsRNA per well
- Duration: 4 days
- Challenge: cells fed 400 µM oleic acid bound to BSA
- Measurement: 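Cells imaged and segmented; ratio of lipid droplet area to nuclear area, log-transformed, then normalised as a B-score over the screen; higher means more stored lipid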
- Reading the numbers: droplet/nuclear area B-score: higher = more stored lipid (overstorage)

Target gene | dsRNA no. | droplet/nuclear area B-score, replicate 1 | droplet/nuclear area B-score, replicate 2 | droplet/nuclear area B-score, replicate 3
CG7430 | 1 | -0.529 | -0.914 | -0.00783
CG6403 | 1 | -0.347 | 1.11 | –
conu | 1 | -0.00689 | 1.71 | –
CG34205 | 1 | 0.0487 | -0.293 | –
CG34205 | 2 | 7.03 | 2.34 | –
CG5866 | 1 | 0.234 | 0.787 | –
CG33159 | 1 | -0.218 | -0.459 | –
CG13850 | 1 | -0.199 | 2.88 | –
CG30378 | 1 | 0.0419 | -0.192 | –
Cht2 | 1 | -0.21 | 1.19 | –
MED11 | 1 | -2.44 | -1.99 | –
MED11 | 2 | -0.346 | 1.8 | –
beta-PheRS | 1 | -0.28 | 1.05 | –
Usp5 | 1 | -1.38 | -0.498 | –
kin17 | 1 | 0.178 | 1.16 | –
dare | 1 | 0.764 | 0.855 | –
CG30376 | 1 | -1.35 | 0.0647 | –
Or63a | 1 | 1.6 | -0.482 | –
Cypl | 1 | 0.596 | -0.00339 | –
Hex-t2 | 1 | 0.922 | -1.01 | –
CG7829 | 1 | 0.0328 | 1.75 | –
ewg | 1 | 0.351 | -1.27 | -0.0331
Frq2 | 1 | 0.307 | 0.348 | –
Pgls | 1 | -2.49 | -0.542 | 0.562
Prp4k | 1 | -0.0128 | 0.53 | –
CG32483 | 1 | -0.427 | -0.0457 | –
chn | 1 | 0.371 | 1.44 | –
CG8813 | 1 | 0.0337 | 1.36 | –
gig | 1 | 1.22 | 1.95 | 0.0574
CG3419 (retired record) | 1 | 1.96 | 0.984 | –
CG3419 (retired record) | 2 | -0.477 | 1.51 | –
alpha-PheRS | 1 | -0.00298 | 1.1 | -0.36
Camp | 1 | 0.435 | 0.108 | –

Continued (4 carried over from the part before).
Target gene | dsRNA no. | droplet/nuclear area B-score, replicate 1 | droplet/nuclear area B-score, replicate 2 | droplet/nuclear area B-score, replicate 3
CG3419 (retired record) | 1 | 1.96 | 0.984 | –
CG3419 (retired record) | 2 | -0.477 | 1.51 | –
alpha-PheRS | 1 | -0.00298 | 1.1 | -0.36
Camp | 1 | 0.435 | 0.108 | –
ranshi | 1 | 0.778 | -0.0571 | –
cype | 1 | 1.34 | 3.04 | –
CG3927 | 1 | 0.991 | -1.49 | –
CG3927 | 2 | 0.76 | 1.11 | –
Est-6 | 1 | -0.216 | 0.565 | –
COX6CL | 1 | -0.376 | -0.855 | –
Max | 1 | -1.61 | -0.0653 | 0.676
drm | 1 | -0.143 | -1.41 | –
Ufd1 | 1 | 1.56 | 0.948 | –
Kyat | 1 | 2.12 | 4.43 | –
CG15743 | 1 | -0.0349 | 1.24 | 1.14
Mes2 | 1 | 1.21 | 1.57 | –
Mes2 | 2 | 2.23 | 3.86 | -0.22
CG14683 | 1 | -0.164 | -0.332 | –
CG10959 | 1 | 2.99 | -3.48 | 0.675
CG10616 | 1 | 0.508 | 3.01 | –
CG13022 | 1 | -0.433 | 1.19 | –
ATPsynGL | 1 | -0.023 | 0.035 | –
Polr1A | 1 | -1.55 | -0.633 | –
Nup107 | 1 | 0.445 | -0.0266 | –
Pits | 1 | 0.873 | 0.0303 | 1.67
Pits | 2 | -0.311 | -0.463 | -0.104
CG7179 | 1 | -0.683 | -1.14 | –
CG5846 | 1 | 1.65 | 0.0166 | –
CG6012 | 1 | -0.807 | 0.171 | –
PH4alphaEFB | 1 | -1.36 | -0.344 | –
PH4alphaEFB | 2 | -1.97 | 0.649 | –
CR40450 + CG32767 | 1 | 2.3 | 0.0746 | 1.67
CG32986 | 1 | -0.999 | -0.912 | –
CkIIbeta2 | 1 | -0.131 | -1.68 | –
Roc1b + Cdc5 | 1 | -3.16 | -2.11 | –
krz | 1 | -0.211 | -1.17 | –
Naa30A | 1 | 6.6 | – | –
Naa30A | 2 | -0.0138 | 0.789 | –
CG9514 | 1 | -1.07 | -1.07 | –
CG9514 | 2 | 0.982 | 0.0133 | –
CG9727 | 1 | -0.505 | – | –
CG8064 | 1 | 6.64 | 1.26 | –
cora | 1 | -0.444 | 0.493 | –
CG10000 | 1 | -0.865 | 1.13 | –
CG12947 | 1 | 1.52 | 0.0917 | –
CG12071 | 1 | -2.28 | -1.39 | –
CG12071 | 2 | 2.94 | 0.363 | –
CG15336 | 1 | -0.295 | 0.418 | –
CG7896 | 1 | 4.51 | 0.688 | –
CG3285 | 1 | -0.0549 | 0.596 | –
CG14252 | 1 | -0.298 | -0.785 | –
CG33262 | 1 | 0.528 | 0.203 | –
CG42521 | 1 | 0.275 | -0.342 | –
PheRS-m | 1 | 0.849 | -1.29 | –
